Measured values: publication PMC4695161
No constants are given. Whether binding was seen depends on the method and setting. Some binding calls cover weakened binding; strength is not graded here.

Sequences of proteins named here, by UniProt entry; tags and fusion partners are left off.
UniProt P54368: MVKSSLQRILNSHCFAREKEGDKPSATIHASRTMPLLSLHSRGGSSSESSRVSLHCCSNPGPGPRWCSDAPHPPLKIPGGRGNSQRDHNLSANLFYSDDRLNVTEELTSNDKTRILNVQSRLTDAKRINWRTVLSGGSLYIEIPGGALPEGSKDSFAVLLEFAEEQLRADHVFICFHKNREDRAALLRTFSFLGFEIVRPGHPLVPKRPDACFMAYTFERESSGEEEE

Tests used:
[1] = target: human antizyme (AZ), wild type (human) (UniProt P54368); assay: AUC; sedimentation velocity; AZ pre-incubated 1 hour with ODC (or CCND1) at molar ratio 1, then the third protein (CCND1 or ODC) at varied concentration; 30 mM Tris-HCl pH 7.4, 50 mM NaCl, 20°C; both purified
[2] = target: human antizyme (AZ), wild type (human) (UniProt P54368); assay: AUC; sedimentation velocity, size distribution of AZ with ODC (or AZI) and CCND1, pre-incubated in either order or co-incubated; molar ratio of AZ to each protein 1; 30 mM Tris-HCl pH 7.4, 50 mM NaCl, 20°C; both purified

binding [1]: binds
binding [2]: binds
B1: human ornithine decarboxylase (ODC) (enzyme, UniProt P11926 1-461)
chain: MNNFGNEEFDCHFLDEGFTAKDILDQKINEVSSSDDKDAFYVADLGDILKKHLRWLKALPRVTPFYAVKCNDSKAIVKTLAATGTGFDCASKTEIQLVQSLGVPPERIIYANPCKQVSQIKYAANNGVQMMTFDSEVELMKVARAHPKAKLVLRIATDDSKAVCRLSVKFGATLRTSRLLLERAKELNIDVVGVSFHVGSGCTDPETFVQAISDARCVFDMGAEVGFSMYLLDIGGGFPGSEDVKLKFEEITGVINPALDKYFPSDSGVRIIAEPGRYYVASAFTLAVNIIAKKIVLKEQTGSDDEDESSEQTFMYYVNDGVYGSFNCILYDHAHVKPLLQKRPKPDEKYYSSSIWGPTCDGLDRIVERCDLPEMHVGDWMLFENMGAYTVAAASTFNGFQRPTIYYVMSGPAWQLMQQFQNPDFPPEVEEQDASTLPVSCAWESGMKRHRAACASASINV
